Laboratory results: PubChem BioAssay AID1671195 (Yale University, 2021)

Screen: 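Genes whose knockdown alters LDL uptake in liver cancer cells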 (primary screen)
System: human Huh7 hepatoma cells
Reagent: siRNA pool against human genes, 18 nM
Timing: about 2 to 2.5 days of knockdown, then 8 h LDL uptake
Conditions: DiI-labelled LDL at 30 µg/ml for 8 h, in lipoprotein-deficient serum medium
Read-out: 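Fluorescent LDL signal imaged in cells, scaled to the plate median, robust z-score for each replicate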
Scale: robust z-score: higher = more LDL uptake after knockdown
Rule for the call: 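Active when two or more replicates show a robust z-score above 2 or below -2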
The deposit covers about 22,000 reagents; below is an unselected part. Of all reagents, about 1,510 (6.9%) are marked active. 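Active includes knockdowns raising or lowering LDL uptake; positive z-scores mean more uptake, negative mean less.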 The numbers tell different reagents against one gene apart.

no.	Gene	reagent no.	robust z-score, replicate 1	robust z-score, replicate 2	robust z-score, replicate 3	outcome
1	VAMP4 (vesicle associated membrane protein 4)	1	1.55	0.777	2.06	inactive
2	IL3 (interleukin 3)	1	2.46	3.17	2.45	active
3	FAM229B (family with sequence similarity 229 member B)	1	0.362	0.942	0.768	inactive
4	B3GNT2	1	-1.48	-0.0348	-1.69	inactive
5	RNF115 (ring finger protein 115)	1	1.12	1.27	0.367	inactive
6	HOXA7 (homeobox A7)	1	-0.487	-0.0996	-0.246	inactive
7	PKMYT1 (protein kinase, membrane associated tyrosine/threonine 1)	1	3.47	1.66	1.84	inactive
8	SGPP1 (sphingosine-1-phosphate phosphatase 1)	1	-1.07	-0.841	-0.74	inactive
9	BUD23 (BUD23 rRNA methyltransferase and ribosome maturation factor)	1	-0.128	0.192	0.704	inactive
10	LIPG (lipase G, endothelial type)	1	0.991	2.03	1.36	inactive
11	RPS6 (ribosomal protein S6)	1	-1.43	-1.1	0.199	inactive
12	USP27X (ubiquitin specific peptidase 27 X-linked)	1	-1.33	-1.99	-1.32	inactive
13	SNRPG (small nuclear ribonucleoprotein polypeptide G)	1	3.09	3.77	2.53	active
14	DNTTIP2 (deoxynucleotidyltransferase terminal interacting protein 2)	1	0.971	1.53	-0.842	inactive
15	KCNA1 (potassium voltage-gated channel subfamily A member 1)	1	4.82	3.31	3.82	active
16	LOC339979 (retired record)	1	0.467	0.698	0.417	inactive
17	DNAI1 (dynein axonemal intermediate chain 1)	1	1.5	0.879	0.456	inactive
18	SERPINA11 (serpin family A member 11)	1	0.483	-0.52	0.429	inactive
19	SNTB1 (syntrophin beta 1)	1	1.22	0.0949	0.942	inactive
20	CENPS (centromere protein S)	1	-0.425	-0.277	-0.862	inactive
21	WNT16 (Wnt family member 16)	1	0.435	3.05	1.92	inactive
22	LINC00575 (long independently transcribed non-coding RNA 575)	1	0.684	0.478	0.23	inactive
23	CXCL2 (C-X-C motif chemokine ligand 2)	1	0.0992	0.18	0.263	inactive
24	WDR41 (WD repeat domain 41)	1	-3.26	-2.59	-3.52	active
25	THPO (thrombopoietin)	1	3.86	2.72	2.78	active
26	CRHR2 (corticotropin releasing hormone receptor 2)	1	-1.84	-0.75	-1.32	inactive
27	ARMC5 (armadillo repeat containing 5)	1	0.0914	0.771	0.184	inactive
28	TNNT1 (troponin T1, slow skeletal type)	1	0.122	-0.839	1.54	inactive
29	ZNF35 (zinc finger protein 35)	1	-0.713	-0.968	-0.761	inactive
30	SULT1A3 (sulfotransferase family 1A member 3)	1	-0.446	-0.712	-0.782	inactive
31	UBE2N (ubiquitin conjugating enzyme E2 N)	1	1.14	1.1	-0.278	inactive
32	IPO7 (importin 7)	1	0.259	0.0214	-0.441	inactive
33	LARP7 (La ribonucleoprotein 7, transcriptional regulator)	1	0.0162	-0.78	0.631	inactive
34	PDSS2 (decaprenyl diphosphate synthase subunit 2)	1	0.407	-0.244	0.826	inactive
35	DDX49 (DEAD-box helicase 49)	1	-1.72	-1.35	-1.12	inactive
36	ZNF703 (zinc finger protein 703)	1	0.622	1.29	1.25	inactive
37	KRABD4 (KRAB domain containing 4)	1	-1.09	-1.04	-0.893	inactive
38	CSTB (cystatin B)	1	1.11	1.3	0.572	inactive
39	ZNF451 (zinc finger protein 451)	1	0.0468	-0.0232	0.415	inactive
40	LOC441682 (retired record)	1	0.445	0.187	0.751	inactive
41	LOC441335 (retired record)	1	-0.752	-0.971	-1.06	inactive
42	LOC440784 (retired record)	1	0.424	0.387	0.952	inactive
43	PCDH19 (protocadherin 19)	1	-1.85	-1.72	-1.99	inactive
44	ZNRF3 (zinc and ring finger 3)	1	-1.21	-1.15	-1.16	inactive
45	ACSS1 (acyl-CoA synthetase short chain family member 1)	1	-0.151	-0.121	0.0411	inactive
46	OR6A2 (olfactory receptor family 6 subfamily A member 2)	1	0.421	-1.53	-1.29	inactive
47	SLC34A3	1	0.406	1.41	2.04	inactive
48	TMEM86B (transmembrane protein 86B)	1	-1.61	-2.45	2.89	inactive
49	LOC147975 (retired record)	1	-0.776	-0.644	-0.774	inactive
50	STXBP4 (syntaxin binding protein 4)	1	0.483	0.649	0.593	inactive
51	CARD9 (caspase recruitment domain family member 9)	1	-1.68	-2.04	-1.79	inactive
52	LOC440403 (retired record)	1	-0.144	0.0369	-0.381	inactive
53	STK39 (serine/threonine kinase 39)	1	-1.15	-0.401	-0.104	inactive
54	NR2C1 (nuclear receptor subfamily 2 group C member 1)	1	-0.072	-1.07	-0.367	inactive
55	LOC442044 (retired record)	1	1.08	0.794	-0.121	inactive
56	TMEM51-AS1 (TMEM51 antisense RNA 1)	1	-0.0214	0.0141	-0.0778	inactive
57	GAPDHP24 (glyceraldehyde 3 phosphate dehydrogenase pseudogene 24)	1	0.104	-0.0542	-0.158	inactive
58	LOC389953 (retired record)	1	-0.126	0.348	0.194	inactive
59	GMCL2 (germ cell-less 2, spermatogenesis associated)	1	-1.16	-1.23	-0.756	inactive
60	CHST13 (carbohydrate sulfotransferase 13)	1	0.146	-0.446	-0.303	inactive
61	FGF6 (fibroblast growth factor 6)	1	0.784	-1.12	0.0188	inactive
62	RALGAPA1 (Ral GTPase activating protein catalytic subunit alpha 1)	1	1.12	1.3	1.48	inactive
63	ELAPOR2	1	-1.51	-1.31	-0.854	inactive
64	CDC50A (cell division cycle 50 P4-ATPase accessory subunit A)	1	0.687	-0.405	-0.619	inactive
65	PCDHB9 (protocadherin beta 9)	1	-1.67	-1.37	-1.47	inactive
66	ARMCX4 (armadillo repeat containing X-linked 4)	1	0.971	0.796	0.551	inactive
67	ARMCX4 (armadillo repeat containing X-linked 4)	2	-0.813	-0.169	-0.416	inactive
68	C10orf71 (chromosome 10 open reading frame 71)	1	-0.24	0.305	-0.0681	inactive

Entries listed so far with an active call, once more:
Gene	reagent no.	robust z-score, replicate 1	robust z-score, replicate 2	robust z-score, replicate 3	outcome
IL3 (interleukin 3)	1	2.46	3.17	2.45	active
SNRPG (small nuclear ribonucleoprotein polypeptide G)	1	3.09	3.77	2.53	active
KCNA1 (potassium voltage-gated channel subfamily A member 1)	1	4.82	3.31	3.82	active
WDR41 (WD repeat domain 41)	1	-3.26	-2.59	-3.52	active
THPO (thrombopoietin)	1	3.86	2.72	2.78	active
